Reference: US20050214802A1 (Genentech, published 2005)
These are yes or no findings as the source states them, for the method shown. Some results given as binding are weak or reduced against the parent protein; the word gives no strength.

Chains of the proteins cited; added tags and fusions are not shown. Residues count along the entry.
UniProt P98170, residues 252-348: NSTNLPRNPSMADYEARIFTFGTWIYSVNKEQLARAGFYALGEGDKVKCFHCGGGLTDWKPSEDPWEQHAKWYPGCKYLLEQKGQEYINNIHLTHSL

Columns and labels:
Assay in all cases: fluorescence polarization, FIG. 8
[1] = target: MLXBIR3 (ML-IAP-BIR with amino acids 160-179 replaced by amino acids 336-348 of XIAP-BIR3) (human) (UniProt Q96CA5+P98170)
[2] = target: XIAP-BIR3 (third BIR of XIAP, residues 252-348) (human) (UniProt P98170)
[3] = target: T1, MLXBIR3SG (ML-IAP chimera: ML-IAP-BIR framework with XIAP-BIR3 residues 336-348 in place of 160-179 and S150G) (human (ML-IAP / XIAP chimera))
T1 sequence: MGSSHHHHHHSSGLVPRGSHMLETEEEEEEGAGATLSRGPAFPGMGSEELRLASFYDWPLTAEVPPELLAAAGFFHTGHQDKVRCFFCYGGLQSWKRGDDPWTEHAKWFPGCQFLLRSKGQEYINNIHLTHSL

[4] = target: T2, ML-IAP-BIR (amino acids 63-179 of ML-IAP, bacterially expressed from pET15b) (human) (UniProt Q96CA5)
T2 sequence (looked up): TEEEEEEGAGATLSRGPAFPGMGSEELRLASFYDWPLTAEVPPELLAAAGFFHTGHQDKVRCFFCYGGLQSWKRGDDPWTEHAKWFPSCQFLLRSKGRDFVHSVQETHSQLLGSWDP

[5] = target: T3, MLBIR-Q (C-terminally truncated variant of ML-IAP-BIR) (human) (UniProt Q96CA5)
T3 sequence (looked up): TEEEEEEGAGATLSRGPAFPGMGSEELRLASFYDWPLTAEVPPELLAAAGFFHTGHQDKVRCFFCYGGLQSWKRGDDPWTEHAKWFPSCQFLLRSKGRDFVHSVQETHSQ

binding [1]: binds
binding [2]: binds
binding [3]: binds
binding [4]: binds
binding [5]: binds
Binder: AVPFAK (5-carboxyfluorescein on Lys 6: AVPFAK(5-FAM)K) [5-carboxyfluorescein-conjugated AVPFAK(5-FAM)K (Hid-FAM)]
